A short description of this assay: qHTS Assay for Modulators of Lamin A Splicing. The following applies: HeLa LMNA splicing GFP/RFP minigene ratio, 48 h. Summed up:
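S3 HeLa stable clones carrying a lamin A-EGFP splicing minigene plus DsRed2 were seeded at 600 cells/well in Opti-MEM with 2% FBS, pin-dosed and incubated 48 h at 37°C. Acumen cytometry (488 nm) gave the GFP/RFP total-intensity ratio.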

Where [1] appears, read: measured here: GFP splicing reporter channel.
Setting [2] is: measured here: RFP viability control channel.

These results are taken from PubChem BioAssay AID1487 (National Center for Advancing Translational Sciences (NCATS), 2009).

Some of the results follow. Further columns of the screen follow, without active or inactive calls. Most of these compounds were active or inconclusive in the main read-out, so they are no random draw. Words in brackets tell the shape of the fitted curve; partial curves, single points and poor fits give uncertain potencies.

`COc1ccc(Br)cc1C(=O)Nc1ccccc1N1CCN(C(=O)c2ccccc2)CC1`: the AC50 (commonly the midpoint of the concentration-response curve, whichever way the signal moves) under setting [1] is 11.2 µM [rising, partial curve, poor fit].
As for `Cn1c(-c2c(N)n(CCc3ccccc3)c3nc4ccccc4nc23)nc2ccccc21`, the AC50 under setting [2] is 31.6 µM [rising, single point].
On the same count and under the same terms, in the case of `NC(=O)NC(=O)Cc1ccccc1` it was 0.000891 µM [rising, full curve, poor fit].
On to `COc1ccc(C(=O)Nc2cc(OC)c(Cl)cc2Cl)cc1`, for which the AC50 under setting [1] was 0.0316 µM [rising, full curve, poor fit] and the AC50 under setting [2] was 0.0112 µM [rising, full curve, poor fit].
For the compound `Cc1ccc(S(=O)(=O)N(CCO)Cc2cc3ccc(C)c(C)c3[nH]c2=O)cc1`, the AC50 under setting [1] is 5.62 µM [rising, partial curve].
Turning to `CN(C)/N=C/c1ccc(Sc2ccccc2[N+](=O)[O-])o1`, the AC50 was 5.62 µM [rising, full curve, poor fit] under setting [1] and 7.94 µM [rising, partial curve, poor fit] under setting [2].
As to `COc1ccccc1-n1c(-c2ccccc2)c[n+]2c1CCc1ccccc1-2`, the AC50 was 6.31 µM [falling, partial curve] under setting [1] and 35.5 µM [rising, single point] under setting [2].
With `Cc1ccc(-c2noc(-c3ccccc3C(=O)N3CCCC3)n2)cc1`, the AC50 under setting [2] is 15.8 µM [rising, single point].
Regarding `COc1cc(C(=O)NCc2ccc3c(c2)CCN3C(=O)c2ccc(Cl)cc2)cc(OC)c1OC`, the AC50 under setting [1] is 14.1 µM [falling, single point].
Take `Cc1ccc(NC(=O)CSc2nc(=O)n(Cc3ccccn3)c3c2CCC3)cc1F`: the AC50 under setting [1] was 20 µM [falling, partial curve, poor fit] and the AC50 under setting [2] was 0.794 µM [falling, full curve, poor fit].
On to `O=C(/C=C/c1ccc(Br)o1)NC(c1ccccc1)c1ccccc1`, for which, under setting [2], the AC50 was 14.1 µM [rising, single point].
On the same count and under the same terms, in the case of `O=C(NN1CCN(Cc2ccccc2Cl)CC1)c1ccc(Cl)cc1` it was 8.91 µM [rising, partial curve, poor fit].
Still for that read-out and setting: to `Cc1cccc2sc(NC(=O)Cn3cccc3)nc12` belongs 15.8 µM [rising, single point]; to `COC(=O)c1cc(=O)c2c([N+](=O)[O-])ccc(OC)c2o1`, 2.51 µM [falling, partial curve].
For the compound `Cc1cccc(Oc2cc([N+](=O)[O-])cc3c2C(=O)Nc2ccccc2O3)c1`, the AC50 runs as follows: under setting [1], 1 µM [rising, partial curve]; under setting [2], 11.2 µM [rising, partial curve].
For the compound `CCOC(=O)c1[nH]c(C)c(C(=O)N2CCN(c3ccccc3)CC2)c1C`, the AC50 is, setting by setting: under setting [1], 4.47 µM [rising, full curve, poor fit]; under setting [2], 1.12 µM [rising, partial curve].
On to `Cc1ccc(S(=O)(=O)NC(=O)c2ccc(Br)o2)c(C)c1`, for which the AC50 under setting [2] is 35.5 µM [falling, single point].
The same measure, in the same setting: to `O=C(CC1OC(=O)c2ccccc21)NC1CCCCC1` (stereo unspecified) belongs 0.398 µM [falling, full curve, poor fit].
Regarding `CCCCCOc1ccc(C(=O)C(c2ccccc2)N2CCOCC2)cc1` (stereo unspecified), the AC50 under setting [2] is 15.8 µM [rising, partial curve].
Same read-out and setting: to `Cc1cc(C)n(CCC(=O)N/N=C/c2ccc(O)cc2O)n1` belongs 28.2 µM [rising, single point]; to `COc1ccc(NC(=O)c2ccc(-c3ccccc3Cl)o2)cc1`, 35.5 µM [rising, single point].
The same measure, in the same setting: in the case of `Cc1ccc(O)c(C(=O)c2cnc3c(c2)COc2ccc(C)cc2-3)c1` it was 12.6 µM [rising, single point].
On to `Cc1ccc(NC(=S)NCc2ccc3[nH]c4c(c3c2)CCCC4)cc1`, for which the AC50 under setting [1] was 2.51 µM [rising, single point].
As for `C/C=C/c1ccc(OCC(=O)OCc2csc(Nc3ccc(C)cc3)n2)c(OC)c1`, the AC50 is, setting by setting: under setting [1], 8.91 µM [rising, partial curve, poor fit]; under setting [2], 2 µM [rising, partial curve].
In the case of `COc1cc(/C=N/Nc2ccc(F)cc2F)cc(OC)c1OC`, the AC50 under setting [2] is 0.0398 µM [rising, full curve, poor fit].
`O=C(COC(=O)c1cc(=O)[nH]c2ccccc12)NC1CCCC1`: the AC50 under setting [2] is 0.00447 µM [falling, full curve, poor fit].
For the compound `COc1cccc(C(=O)Nc2ccc(C3CC3(Cl)Cl)cc2)c1` (stereo unspecified), under setting [2], the AC50 was 14.1 µM [rising, single point].
The same measure, in the same setting: to `O=C(Nc1ccc(N2CCOCC2)nc1)c1ccc(Cl)cc1` belongs 31.6 µM [rising, single point].
As for `O=C(Nc1cccc(Cl)c1)N(Cc1nc2ccccc2c(=O)[nH]1)Cc1cccs1`, the AC50 under setting [1] was 35.5 µM [rising, single point] and the concentration at half-maximal activity (AC50) under setting [2] is 35.5 µM [rising, single point].
On to `N=c1n(Cc2ccccc2)c2ccccc2n1CC(O)COc1ccccc1` (stereo unspecified), for which the AC50 reads like this: under setting [1], 11.2 µM [rising, single point]; under setting [2], 12.6 µM [rising, single point].
Consider `CCn1nc(C(=O)NNC(=O)COc2ccc(OC)cc2)c2ccccc2c1=O`, for which, under setting [2], the AC50 was 0.0316 µM [rising, full curve, poor fit].
Regarding `CC(=O)Nc1nc(-c2ccc(Br)s2)cs1`, the AC50 runs as follows: under setting [1], 4.47 µM [rising, full curve, poor fit]; under setting [2], 0.562 µM [rising, full curve].
As to `c1ccc(CNc2ncnc3ccccc23)cc1`, the AC50 was 12.6 µM [rising, partial curve] under setting [1] and 8.91 µM [rising, partial curve] under setting [2].
For `CCCn1c(SCC(=O)N2c3ccccc3Sc3ccccc32)nc2ccccc21`, under setting [2], the AC50 is 25.1 µM [rising, single point].
With `O=C(Nc1cccc(C(=O)OCc2cc(=O)n3c4c(sc3n2)CCCC4)c1)c1cccc(F)c1`, under setting [1], the AC50 is 3.98 µM [falling, partial curve].
As to `O=C1CC(c2ccccc2)CC(O)=C1C=NCc1ccccc1Cl` (stereo unspecified), the AC50 under setting [1] is 7.08 µM [falling, partial curve] and the AC50 under setting [2] is 11.2 µM [falling, partial curve].
Take `O=C1C=C(NC2CCCC2)CC(c2ccccc2)C1` (stereo unspecified): the AC50 by setting is: under setting [1], 11.2 µM [rising, partial curve]; under setting [2], 0.562 µM [rising, full curve, poor fit].
`Cc1cccc(C)c1NC(=O)C1CCCCN1C` (stereo unspecified): the AC50 is 0.708 µM [falling, partial curve, poor fit] under setting [1] and 12.6 µM [rising, partial curve, poor fit] under setting [2].
Take `CCOC(=O)c1c(C)oc2cc(Br)c(OC(C)C(=O)OCC)cc12` (stereo unspecified): the AC50 under setting [1] was 14.1 µM [rising, single point].
For the compound `COc1ccc(C2C(=O)c3ccccc3C2=O)cc1`, the AC50 under setting [1] is 3.55 µM [rising, single point].
As to `Cc1ccc(NC(=O)CSc2ccccc2NC(=O)c2cccc(Cl)c2)cc1Cl`, the AC50 under setting [2] is 35.5 µM [rising, single point].
With `O=C(Nc1ccc(Cc2ccncc2)cc1)c1cc([N+](=O)[O-])ccc1N1CCOCC1`, under setting [1], the AC50 is 1.26 µM [falling, full curve].
For the compound `Cc1cccc(C(=O)N2CCc3cc(CNC(=O)Cc4ccc(F)cc4)ccc32)c1`, the AC50 under setting [2] is 5.01 µM [rising, full curve, poor fit].
For `Cc1ccc(Cc2nc3ccccc3nc2SCC(=O)NCc2ccc(F)cc2)cc1`, the AC50 under setting [1] is 0.794 µM [rising, single point].
Take `CCc1ccccc1N(C)C(=O)c1cnc(N2CCOCC2)c2ccccc12`: the AC50 is 0.0891 µM [falling, full curve, poor fit] under setting [1] and 0.112 µM [falling, full curve, poor fit] under setting [2].
Take `CCOc1cc(/C=C/c2nc3cc(C)c(C)cc3s2)ccc1OCC(=O)N1CCOCC1`: the AC50 is, setting by setting: under setting [1], 28.2 µM [rising, partial curve, poor fit]; under setting [2], 35.5 µM [rising, single point].
For `[O-][N+]12CCN(CC1)c1ccccc12`, the AC50 is, setting by setting: under setting [1], 31.6 µM [rising, single point]; under setting [2], 20 µM [rising, single point].
In the case of `CCC(=O)C1=C(c2cccc([N+](=O)[O-])c2)N(C(=O)CC)n2c(nnc2-c2ccccc2)S1`, the AC50 under setting [2] was 35.5 µM [rising, partial curve, poor fit].
On to `CC(/C=N/NC(=O)Cc1cc(=O)[nH][nH]1)=C\c1ccccc1`, for which the half-maximal activity concentration (AC50) is 0.0224 µM [falling, full curve, poor fit] under setting [1] and 0.0316 µM [falling, full curve, poor fit] under setting [2].
On to `CS(=O)(=O)Nc1cccc(-c2nc(Nc3ccccc3)c3ccccc3n2)c1`, for which the AC50 by setting is: under setting [1], 17.8 µM [falling, single point]; under setting [2], 35.5 µM [falling, single point].
As for `O=C(NCc1ccccc1)c1ccccc1CO`, the AC50 under setting [2] was 0.00447 µM [falling, full curve, poor fit].
Still for that read-out and setting: to `Cc1cc([N+](=O)[O-])nn1CC(=O)Nc1cc(F)ccc1F` belongs 0.00316 µM [falling, full curve, poor fit].
Consider `COc1cccc2[nH]c3c(N4CCCCC4)ncnc3c12`, for which the AC50 is 0.00891 µM [rising, full curve, poor fit] under setting [1] and 0.0126 µM [rising, full curve, poor fit] under setting [2].
Take `CCC1(CC)Cc2ccccc2C(N)=C1C#N`: the AC50 under setting [2] was 22.4 µM [rising, single point].
For `CC(C)(C)NC(=O)NC(=O)COC(=O)CNC(=O)c1cc(Cl)cc([N+](=O)[O-])c1`, the AC50 under setting [1] was 7.08 µM [rising, full curve, poor fit].
On the same count and under the same terms, to `C#CCOCCOCCOCCNc1nc(N2CCN(C(=O)[C@H]([C@@H](C)O)n3cc(CCCCN)nn3)CC2)nc(N2CCN(C(=O)[C@H](C)n3cc(CCCN=C(N)N)nn3)CC2)n1` belongs 3.55 µM [falling, partial curve, poor fit].
